PubChem BioAssay AID1259405, NCATS – 2018
The whole screen tested about 50,000 reagents; below is a random part of them. About 4,000 of them (8%) were called active. 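Mouse siRNA library applied to hamster cells; one well for each siRNA.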 Entries without a mark were called inactive. Reagents against one gene are numbered here. No sequences are given here.

Purpose: 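Knock-downs that lift recombinant protein yield in hamster ovary cells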 (primary screen)
System: Chinese hamster CHO-K1 ovary cells with stable secreted eGFP expression
Reagents: single siRNA against mouse genes, 0.8 pmol siRNA per well (2 µl of 400 nM stock)
Timing: 3 days
Detection: 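Per-well intracellular GFP measured by laser scanning cytometry, plus viability from ATP luminescence, each relative to plate median of non-targeting control wells, in %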
Scale: GFP, % of control: higher = more GFP per well, higher productivity; viability (ATP), % of control: higher = more viable cells (more ATP)
Hit rule: 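a knock-down is called active if GFP reaches 120% or more of non-targeting control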

The opening 2 entries, ahead of the listing:
Haus7 #1
- GFP, % of control: 86.3
- viability (ATP), % of control: 91.4

Haus7 #2
- GFP, % of control: 56.4
- viability (ATP), % of control: 61.1

The list itself, from the first entry:
Haus7 #1
- GFP, % of control: 86.3
- viability (ATP), % of control: 91.4

Haus7 #2
- GFP, % of control: 56.4
- viability (ATP), % of control: 61.1

Haus7 #3
- GFP, % of control: 44.3
- viability (ATP), % of control: 42.3

Opn5 #1
- GFP, % of control: 54.1
- viability (ATP), % of control: 27.7

Opn5 #2
- GFP, % of control: 58.8
- viability (ATP), % of control: 77.8

Opn5 #3
- GFP, % of control: 85.5
- viability (ATP), % of control: 65.9

Ppp1r14b #1
- GFP, % of control: 150 (active)
- viability (ATP), % of control: 66.6

Ppp1r14b #2
- GFP, % of control: 76.6
- viability (ATP), % of control: 77.2

Ppp1r14b #3
- GFP, % of control: 80.4
- viability (ATP), % of control: 67.5

Nefm #1
- GFP, % of control: 74.4
- viability (ATP), % of control: 75.8

Nefm #2
- GFP, % of control: 50.9
- viability (ATP), % of control: 55.7

Nefm #3
- GFP, % of control: 111
- viability (ATP), % of control: 70.5

Adprhl1 #1
- GFP, % of control: 73.9
- viability (ATP), % of control: 77

Adprhl1 #2
- GFP, % of control: 88.1
- viability (ATP), % of control: 92.9

Adprhl1 #3
- GFP, % of control: 140 (active)
- viability (ATP), % of control: 116

Wdfy2 #1
- GFP, % of control: 46.7
- viability (ATP), % of control: 57.3

Wdfy2 #2
- GFP, % of control: 38.7
- viability (ATP), % of control: 41.5

Wdfy2 #3
- GFP, % of control: 75.7
- viability (ATP), % of control: 87.9

Bmpr2
- GFP, % of control: 67.8
- viability (ATP), % of control: 75.7

C1qb #1
- GFP, % of control: 66.6
- viability (ATP), % of control: 73.9

C1qb #2
- GFP, % of control: 42.6
- viability (ATP), % of control: 33.1

C1qb #3
- GFP, % of control: 97.6
- viability (ATP), % of control: 57.2

Slc18a3 #1
- GFP, % of control: 86.7
- viability (ATP), % of control: 55.4

Slc18a3 #2
- GFP, % of control: 87.7
- viability (ATP), % of control: 77.8

Slc18a3 #3
- GFP, % of control: 151 (active)
- viability (ATP), % of control: 94.1

Wwc1 #1
- GFP, % of control: 74.7
- viability (ATP), % of control: 74.6

Wwc1 #2
- GFP, % of control: 90.5
- viability (ATP), % of control: 76.5

Wwc1 #3
- GFP, % of control: 135 (active)
- viability (ATP), % of control: 120

Mrpl50 #1
- GFP, % of control: 92.3
- viability (ATP), % of control: 83.1

Mrpl50 #2
- GFP, % of control: 111
- viability (ATP), % of control: 92.5

Mrpl50 #3
- GFP, % of control: 91
- viability (ATP), % of control: 58.3

Homer2 #1
- GFP, % of control: 72.3
- viability (ATP), % of control: 71.8

Homer2 #2
- GFP, % of control: 91.5
- viability (ATP), % of control: 105

Homer2 #3
- GFP, % of control: 66.5
- viability (ATP), % of control: 61.9

Homer2 #4
- GFP, % of control: 55.7
- viability (ATP), % of control: 90.4

Homer2 #5
- GFP, % of control: 70.5
- viability (ATP), % of control: 58.2

Homer2 #6
- GFP, % of control: 100
- viability (ATP), % of control: 75.6

Hcn1 #1
- GFP, % of control: 129 (active)
- viability (ATP), % of control: 109

Hcn1 #2
- GFP, % of control: 134 (active)
- viability (ATP), % of control: 58.6

Hcn1 #3
- GFP, % of control: 98.3
- viability (ATP), % of control: 83.6
